Experimental data published in PubChem BioAssay AID504847 (National Center for Advancing Translational Sciences (NCATS), 2011).
Among all 400,000 compounds or so, about 3,700 (0.93%) were called active. Inconclusive means that the source gave no clear call. Such entries were picked first, then a sample of the others. Calls come from the whole dose curve; as a rule, active = well fitted inhibition curve with a large enough effect; inconclusive = small, poorly fitted or top-dose-only effect, or another doubt; inactive = no such curve, though single readings can be large or run the other way. Potencies of inconclusive entries are doubtful fits and often do not repeat.

Sequences of proteins named here, by UniProt entry; tags and fusion partners are left off. A change or cut given only in a name is not applied to a line headed by its entry.
UniProt P11473: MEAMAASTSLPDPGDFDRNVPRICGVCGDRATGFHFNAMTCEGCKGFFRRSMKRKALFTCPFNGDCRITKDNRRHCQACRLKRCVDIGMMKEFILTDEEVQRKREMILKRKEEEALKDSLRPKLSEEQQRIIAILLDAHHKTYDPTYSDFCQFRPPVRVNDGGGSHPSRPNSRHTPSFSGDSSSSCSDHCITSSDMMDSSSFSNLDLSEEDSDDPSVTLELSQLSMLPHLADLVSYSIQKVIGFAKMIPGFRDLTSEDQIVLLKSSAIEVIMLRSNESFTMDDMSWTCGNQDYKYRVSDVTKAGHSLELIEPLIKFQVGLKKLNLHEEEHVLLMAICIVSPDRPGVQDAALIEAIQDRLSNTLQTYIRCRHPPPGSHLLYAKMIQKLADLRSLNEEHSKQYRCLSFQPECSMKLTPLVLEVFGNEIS

What follows are compounds tested against Vitamin D3 receptor (Homo sapiens) (UniProt P11473) (assay: Inhibitors of the vitamin D receptor (VDR): qHTS). Details: VDR-SRC2-3 peptide fluorescence polarization, 2 h; max response, negative = inhibition: stronger effect = lower value.
Method in brief: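 Fluorescence polarization assay of small-molecule disruption of VDR binding to coregulator peptide SRC2-3. Compounds and controls pin-transferred, then read after 2 h incubation at ambient room temperature.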
% is set by controls: 0 for no effect and ±100 for the full control effect; potency is the fitted concentration of half-maximal effect.

Potency, inconclusive:
O=C(c1ccc(Cl)c(Cl)c1)N1CCC(=O)N(C(CO)Cc2ccccc2)CC1 (configuration not stated) 89.1 µM [inhibitor, single point], COc1ccc(C(=O)NCCNc2ccc([N+](=O)[O-])cc2)cc1OC 70.8 µM [inhibitor, partial curve], COc1ccc(C(=O)Nc2nc3ccccc3s2)c(OC)c1 31.6 µM [inhibitor, single point], S=c1nc2[nH]c3ccccc3c2n[nH]1 79.4 µM [inhibitor, single point], O=P1(c2ccccc2)C=Cn2c1cc1c2CCCC1 (configuration not stated) 70.8 µM [inhibitor, single point], Cc1ccc(NC(=O)CN(C)C(=O)c2cc(C)on2)cc1 89.1 µM [inhibitor, partial curve, poor fit], Cc1ccc(C(=O)N/C(=C\c2ccc(-c3ccccc3[N+](=O)[O-])o2)C(=O)NCCCN2CCOCC2)cc1 14.1 µM [inhibitor, partial curve], O=C1CC(c2ccc(Cl)cc2)CC(=O)C1CS(=O)(=O)c1ccccc1 (configuration not stated) 39.8 µM [inhibitor, single point], Nc1nc(SCC(=O)c2ccc([N+](=O)[O-])cc2)n[nH]1 100 µM [inhibitor, single point], COc1ccc(CNC(=O)c2sc(=S)n(-c3ccc(OC)cc3)c2N)cc1 70.8 µM [inhibitor, single point], O=[N+]([O-])c1cc(S(=O)(=O)C(F)(F)F)ccc1Sc1nc2ccccc2[nH]1 79.4 µM [inhibitor, partial curve, poor fit], O=C(O)CCNc1cc(N2CCN(C(=O)c3ccco3)CC2)c2noc3c2c1C(=O)c1ccccc1-3 8.91 µM [inhibitor, partial curve, poor fit], COC(=O)c1c(C)oc(C)c1S(=O)(=O)NCc1cccs1 5.01 µM [inhibitor, full curve, poor fit], Cc1cccc(Cc2nnc(CCC(=O)NCc3ccncc3C)o2)c1 89.1 µM [inhibitor, single point], CC(C)C1COC(c2cccn2Cc2ccccc2Cl)=N1 (configuration not stated) 89.1 µM [inhibitor, single point], CCN1CCN(C(=O)C(C)Sc2nnc3nc(C)cc(C)n23)CC1 (configuration not stated) 0.631 µM [inhibitor, full curve, poor fit], CCN1c2ccccc2N(C)C1(C)c1ccccc1 (configuration not stated) 89.1 µM [inhibitor, single point], CC(C)(C)c1ccc(S(=O)(=O)c2cnc(SCC(=O)Nc3ccc(F)c(Cl)c3)[nH]c2=O)cc1 89.1 µM [inhibitor, single point], Cc1ccc(-c2nn(C)c(=O)c3ccccc23)cc1CO 89.1 µM [inhibitor, single point], COc1ccc(/C=C2/SC(=O)N(CC(O)Cn3c4ccccc4c4ccccc43)C2=O)cc1 (configuration not stated) 50.1 µM [inhibitor, partial curve, poor fit], C=CC[C@H]1CC(Cc2ccccc2)=C[C@H](CC=C)N1 56.2 µM [inhibitor, partial curve, poor fit], CN(C)c1ccc(S(=O)(=O)NCC(=O)NCc2ccccc2)cc1[N+](=O)[O-] 100 µM [inhibitor, single point], Cc1ccc2cccnc2c1NC(=S)NC(=O)c1ccccc1 89.1 µM [inhibitor, single point], Cc1ccc(C(=O)CC(SCC(=O)O)c2ccc([N+](=O)[O-])cc2)cc1 (configuration not stated) 50.1 µM [inhibitor, partial curve], O=C(CSc1ccc(-c2nc3ccccc3[nH]2)cn1)Nc1ccc(S(=O)(=O)N2CCCC2)cc1 89.1 µM [inhibitor, single point], CC(C)(C)OC(=O)N1CCC[C@H]1C(=O)NCc1ccc(Cl)cc1Cl 79.4 µM [inhibitor, single point], CCOc1cc(C2C(C#N)=C(N)OC(C)=C2C(C)=O)c(Br)c(Br)c1OC(C)C (configuration not stated) 70.8 µM [inhibitor, partial curve], COc1ccc(NC(=O)c2sc3nc4c(cc3c2N)CCCCCC4)cc1Cl 89.1 µM [inhibitor, partial curve, poor fit], Cc1ccccc1C(=O)NC1CCN(C(=O)NCc2ccccc2)CC1 79.4 µM [inhibitor, single point], NC1=NC(=Nc2cccc(S(=O)(=O)N3CCOCC3)c2)c2ccccc21 4.47 µM [inhibitor, partial curve, poor fit], Cc1ccc(/C(C#N)=C\c2ccc(N3CCOCC3)o2)cc1 20 µM [inhibitor, full curve, poor fit], Cc1nc(NC2CCCCC2)c2nnn(Cc3ccccc3Cl)c2n1 79.4 µM [inhibitor, partial curve, poor fit], COc1ccc(C(=O)/C=C/c2cc(OC)c(O)c(OC)c2)c(F)c1 20 µM [inhibitor, full curve], CSc1ccccc1NC(=O)C1CC(c2ccccc2Cl)=NO1 (configuration not stated) 89.1 µM [inhibitor, single point], Cc1ccc(NC(=O)CN2C(=O)S/C(=C\c3ccccn3)C2=O)cc1 89.1 µM [inhibitor, single point], COc1cccc(NC(=O)Cn2c(=O)n(C)c(=O)c3sc4c(c32)COC(C)(C)C4)c1 56.2 µM [inhibitor, partial curve, poor fit], CC(=O)c1cnc2nc(SCc3ccc(C)cc3)nn2c1C 89.1 µM [inhibitor, single point], CCOC(=O)c1ccc(-n2c(N)c(C(=O)NCc3ccco3)sc2=S)cc1 63.1 µM [inhibitor, single point], C/C(=N\Nc1cccc(Cl)c1)c1ccc(-n2ccnc2)cc1 89.1 µM [inhibitor, partial curve, poor fit], CCOC(=O)CNC(=O)CCc1nnc2ccc(N3CCC(C)CC3)nn12 44.7 µM [inhibitor, partial curve], COc1ccc(NC(=O)CSc2nnc(Cc3cccn3C)n2-c2ccc(F)cc2)cc1OC 89.1 µM [inhibitor, partial curve, poor fit], NC(=O)c1cc2c3ccccc3ccn2c1-c1ccccc1 100 µM [inhibitor, single point], CCOC(=O)N1CCN(C2=C(NS(=O)(=O)c3ccccc3)C(=O)c3ccccc3C2=O)CC1 39.8 µM [inhibitor, partial curve, poor fit]

Potency, active:
Cc1ccc(N2C3=C(C(=O)CC(C)(C)C3)C(c3cn(C)nc3C)C3=C2CC(C)(C)CC3=O)cc1 20 µM, O=C1C=C(C2OC(CO)C(O)C2O)C(=O)N1 (configuration not stated) 39.8 µM, O=C1/C(=C/c2ccncc2)SC(=S)N1Nc1ccccc1 50.1 µM, COc1ccc(C(=O)CCN2CCCCCC2)cc1 28.2 µM, COc1ccc2ccccc2c1C1CC(=O)N2CN(C3CCCCC3)CSC2=C1C#N (configuration not stated) 89.1 µM, CCOC(=O)/C=C/CCC/C=C/C(=O)c1ccccc1 8.91 µM, CC1(C)CC(=O)C(C(C2=C(O)CC(C)(C)CC2=O)c2ccc(O)c([N+](=O)[O-])c2)=C(O)C1 79.4 µM, CCOC(=O)c1sc(=S)n(-c2cc(OC)ccc2OC)c1N 20 µM, COc1ccccc1N1CCNC(C)C1=O (configuration not stated) 79.4 µM, N#Cc1c(N2CCCCC2)nc(N)c2c(N)nc(SCC(=O)O)cc12 50.1 µM, Cc1nc(SCC(=O)c2ccc(F)cc2)n[nH]1 70.8 µM, Cc1cc(C)cc(NC2=C(N)C(=O)c3ccccc3C2=O)c1 89.1 µM

Max response, negative = inhibition, inactive:
Cc1ccc(C(=O)N/C(=C\c2ccc(Cl)cc2)C(=O)NCCN2CCOCC2)cc1 -9.14%, COc1cccc(S(=O)(=O)Nc2ccc(C(=O)NCc3ccco3)cc2)c1 6.21%, FC(F)(F)c1ccc(Cl)c(-n2c(-c3ccco3)n[nH]c2=S)c1 -15.2%, COc1ccc(-c2cnnc(N/N=C/c3ccc(O)c(O)c3)n2)cc1 -5.86%, CCS(=O)(=O)c1nc2ccccc2n1CC(=O)Nc1ccccc1C(=O)OC 6.54%, O=C1C=C(c2ccccc2)C(c2ccccc2)C1 (configuration not stated) 10.6%, CCc1n[nH]c(=S)n1/N=C/c1c(C)nn(-c2ccccc2)c1Cl -12.4%, CC/C(C)=N\N=C\c1c(O)n(CC)c2cc(C3=NNC(=O)CC3)ccc12 -10.5%, Cc1cc2occ(CC(=O)OCC(=O)Nc3sc4c(c3C#N)CCC(C)C4)c2cc1C (configuration not stated) 2.37%, COc1ccc(Nc2nc(NCc3ccco3)nc(N/N=C/c3ccccc3F)n2)cc1 -6.34%, COc1ccc(CNC(=O)CNC(c2ccccc2)c2ccccc2)cc1OC 8%, CC(=O)c1ccc(NC(=O)c2cccc(N3C(=O)c4ccccc4C3=O)c2)cc1 1.98%
